Measurements taken from PubChem BioAssay AID328 (DTP/NCI, 2004).
The list shows only some results of the screen, not a fair sample: it covers a few groups of compounds. Other doses and runs of a compound may be missing. T/C gives the treated animals as a percentage of the vehicle group. Where survival is the endpoint, this PubChem deposit counts one and a half times the control or more as active, and values a quarter to a half above the control carry no call in these data; other NCI protocols may use other cut-offs. Some T/C values are marked as having no survivor count here; that says nothing about deaths at the dose. Schedule codes are those of the source, read here as Q, the interval in days (D) or hours (H), X, the number of doses. Some doses were run more than once; the results are listed from low to high.

Tested on: BDF1 mice, P388 leukemia ip, median survival T/C
Test: NCI In Vivo Anticancer Drug Screen. Data for tumor model P388 Leukemia (intraperitoneal) in B6D2F1 (BDF1) mice
Settings: T/C endpoint: median survival time, higher T/C = longer survival
Procedure, shortened: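 Each value expresses how treatment altered survival: treated-mouse outcome over vehicle-mouse outcome, both groups bearing the transplanted tumour.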

In the case of `Cc1nc(-c2ccc(N(CCCl)CCCl)cc2)cs1`, the T/C (dose: 132.0 mg/kg/injection, schedule: Q01DX009 (ip), vehicle: saline with Tween-80) is reported as 91 % of control [survivor count not shown], the T/C (dose: 200.0 mg/kg/injection, schedule: Q01DX009 (ip), vehicle: saline with Tween-80) is reported as 108 % of control [survivor count not shown] and the T/C (dose: 300.0 mg/kg/injection, schedule: Q01DX009 (ip), vehicle: saline with Tween-80) is reported as 125 % of control [survivor count not shown].

With `O=S=NN(CCCl)CCCl` the T/C (dose: 8.5 mg/kg/injection, schedule: Q04DX003 (ip), vehicle: saline) was 100 % of control [survivor count not shown], the T/C (dose: 10.0 mg/kg/injection, schedule: Q04DX003 (ip), vehicle: saline) was 113 % of control [survivor count not shown] and the T/C (dose: 13.0 mg/kg/injection, schedule: Q04DX003 (ip), vehicle: saline) was 136 % of control [survivor count not shown]. For the same compound, the T/C (dose: 20.0 mg/kg/injection, schedule: Q04DX003 (ip), vehicle: saline) was 204 [survivor count not shown] and 218 % of control [survivor count not shown], the T/C (dose: 30.0 mg/kg/injection, schedule: Q04DX003 (ip), vehicle: saline) was 159 % of control [survivor count not shown] and the T/C (dose: 40.0 mg/kg/injection, schedule: Q04DX003 (ip), vehicle: saline) was 95 % of control [survivor count not shown].

With `CCC(C)(O)C#CCN(CCCl)CCCl` (centres undefined) the T/C (dose: 3.13 mg/kg/injection, schedule: Q01DX009 (ip), vehicle: saline) was 122 % of control [survivor count not shown].

For `Cc1ccc(NC2(C(N)=O)CCNCC2)cc1`, the T/C (dose: 25.0 mg/kg/injection, schedule: Q04DX003 (ip), vehicle: saline) was 96 % of control [survivor count not shown], the T/C (dose: 50.0 mg/kg/injection, schedule: Q04DX003 (ip), vehicle: saline) was 92 % of control [survivor count not shown] and the T/C (dose: 100.0 mg/kg/injection, schedule: Q04DX003 (ip), vehicle: saline) was 104 % of control [survivor count not shown].

`Cc1cc(C)c2nc(CN(CCCl)CCCl)[nH]c2c1` was tested, and the T/C (dose: 6.1 mg/kg/injection, schedule: Q04DX003 (ip), vehicle: Klucel (hydroxypropylcellulose) (HPC)) was 120 % of control [survivor count not shown], the T/C (dose: 9.2 mg/kg/injection, schedule: Q04DX003 (ip), vehicle: Klucel (hydroxypropylcellulose) (HPC)) was 112 % of control [survivor count not shown] and the T/C (dose: 14.0 mg/kg/injection, schedule: Q04DX003 (ip), vehicle: saline with Tween-80) was 170 % of control [survivor count not shown]. The T/C (dose: 21.0 mg/kg/injection, schedule: Q04DX003 (ip), vehicle: saline with Tween-80) was 170 % of control [survivor count not shown], the T/C (dose: 33.0 mg/kg/injection, schedule: Q04DX003 (ip), vehicle: saline with Tween-80) was 168 % of control [survivor count not shown] and the T/C (dose: 50.0 mg/kg/injection, schedule: Q04DX003 (ip), vehicle: saline with Tween-80) was 204 % of control [survivor count not shown].

In the case of `O=P(N(CCCl)CCCl)(N1CC1)N1CC1`, the T/C (dose: 264.0 mg/kg/injection, schedule: Q04DX003 (ip), vehicle: saline with Tween-80) is reported as 127 [survivor count not shown] and 145 % of control [survivor count not shown], the T/C (dose: 400.0 mg/kg/injection, schedule: Q04DX003 (ip), vehicle: saline with Tween-80) is reported as 125 [survivor count not shown] and 145 % of control [survivor count not shown] and the T/C (dose: 600.0 mg/kg/injection, schedule: Q04DX003 (ip), vehicle: saline with Tween-80) is reported as 133 [survivor count not shown] and 209 % of control [survivor count not shown].

`O=C(O)CCCCc1ccc(N(CCCl)CCCl)cc1` was tested, and the T/C (dose: 1.56 mg/kg/injection, schedule: Q01DX009 (ip), vehicle: Klucel (hydroxypropylcellulose) (HPC)) was 116 % of control [survivor count not shown], the T/C (dose: 2.0 mg/kg/injection, schedule: Q04DX003 (ip), vehicle: saline with Tween-80) was 105 % of control [survivor count not shown] and the T/C (dose: 3.13 mg/kg/injection, schedule: Q01DX009 (ip), vehicle: Klucel (hydroxypropylcellulose) (HPC)) was 127 % of control [survivor count not shown]. For the same compound, the T/C (dose: 4.0 mg/kg/injection, schedule: Q04DX003 (ip), vehicle: saline with Tween-80) was 110 % of control [survivor count not shown], the T/C (dose: 6.25 mg/kg/injection, schedule: Q01DX009 (ip), vehicle: Klucel (hydroxypropylcellulose) (HPC)) was 133 % of control [survivor count not shown] and the T/C (dose: 6.25 mg/kg/injection, schedule: Q04DX003 (ip), vehicle: saline with Tween-80) was 104 % of control [survivor count not shown]. For the same compound, the T/C (dose: 8.0 mg/kg/injection, schedule: Q04DX003 (ip), vehicle: saline with Tween-80) was 120 % of control [survivor count not shown], the T/C (dose: 12.5 mg/kg/injection, schedule: Q01DX009 (ip), vehicle: Klucel (hydroxypropylcellulose) (HPC)) was 159 % of control [survivor count not shown] and the T/C (dose: 12.5 mg/kg/injection, schedule: Q04DX003 (ip), vehicle: Klucel (hydroxypropylcellulose) (HPC)) was 113 % of control [survivor count not shown]. For the same compound, the T/C (dose: 12.5 mg/kg/injection, schedule: Q04DX003 (ip), vehicle: saline with Tween-80) was 127 % of control [survivor count not shown], the T/C (dose: 16.5 mg/kg/injection, schedule: Q04DX003 (ip), vehicle: saline with Tween-80) was 113 % of control [survivor count not shown] and the T/C (dose: 25.0 mg/kg/injection, schedule: Q01DX009 (ip), vehicle: Klucel (hydroxypropylcellulose) (HPC)) was 186 % of control [survivor count not shown]. For the same compound, the T/C (dose: 25.0 mg/kg/injection, schedule: Q04DX003 (ip), vehicle: Klucel (hydroxypropylcellulose) (HPC)) was 147 % of control [survivor count not shown], the T/C (dose: 25.0 mg/kg/injection, schedule: Q04DX003 (ip), vehicle: saline with Tween-80) was 130 [survivor count not shown] and 145 % of control [survivor count not shown] and the T/C (dose: 37.5 mg/kg/injection, schedule: Q04DX003 (ip), vehicle: saline with Tween-80) was 152 % of control [survivor count not shown].

For `CC(Cl)CNCC(C)Cl` (centres undefined), the T/C (dose: 12.5 mg/kg/injection, schedule: Q01DX009 (ip), vehicle: saline) was 105 % of control [survivor count not shown] and the T/C (dose: 50.0 mg/kg/injection, schedule: Q01DX009 (ip), vehicle: saline) was 90 % of control [survivor count not shown].
